# For some assays here: All entries are inconclusive by the source's own rule. Clear calls are listed elsewhere. For some assays here: Potencies of inconclusive entries are doubtful fits and often do not repeat. For some assays here: Inconclusive results, whose numbers are uncertain, are shown with a selection of clear calls. The source made the active and inactive calls. Calls come from the whole dose curve; as a rule, active = well fitted curve in the direction sought with a large enough effect; inconclusive = small, poorly fitted or top-dose-only effect, or another doubt; inactive = no such curve, though single readings can be large; an effect the other way counts as inactive or inconclusive.
# By UniProt entry, the sequences of proteins in these tests, tags left out. Where a name states a change or a piece, a line headed by the entry shows the natural chain unless it says otherwise.
# UniProt Q27686: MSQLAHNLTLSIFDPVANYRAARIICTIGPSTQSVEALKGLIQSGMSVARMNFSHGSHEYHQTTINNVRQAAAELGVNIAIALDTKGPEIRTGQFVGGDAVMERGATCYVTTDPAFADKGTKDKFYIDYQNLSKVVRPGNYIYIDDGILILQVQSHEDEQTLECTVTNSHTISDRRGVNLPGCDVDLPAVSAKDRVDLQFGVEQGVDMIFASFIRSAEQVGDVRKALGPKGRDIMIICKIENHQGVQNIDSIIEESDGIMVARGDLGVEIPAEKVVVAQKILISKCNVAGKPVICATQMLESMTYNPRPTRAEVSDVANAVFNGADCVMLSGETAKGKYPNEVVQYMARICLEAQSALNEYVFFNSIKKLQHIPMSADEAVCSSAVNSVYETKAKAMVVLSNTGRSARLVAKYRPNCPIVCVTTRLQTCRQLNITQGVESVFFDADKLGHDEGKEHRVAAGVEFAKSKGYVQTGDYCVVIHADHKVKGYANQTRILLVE
# UniProt Q03431: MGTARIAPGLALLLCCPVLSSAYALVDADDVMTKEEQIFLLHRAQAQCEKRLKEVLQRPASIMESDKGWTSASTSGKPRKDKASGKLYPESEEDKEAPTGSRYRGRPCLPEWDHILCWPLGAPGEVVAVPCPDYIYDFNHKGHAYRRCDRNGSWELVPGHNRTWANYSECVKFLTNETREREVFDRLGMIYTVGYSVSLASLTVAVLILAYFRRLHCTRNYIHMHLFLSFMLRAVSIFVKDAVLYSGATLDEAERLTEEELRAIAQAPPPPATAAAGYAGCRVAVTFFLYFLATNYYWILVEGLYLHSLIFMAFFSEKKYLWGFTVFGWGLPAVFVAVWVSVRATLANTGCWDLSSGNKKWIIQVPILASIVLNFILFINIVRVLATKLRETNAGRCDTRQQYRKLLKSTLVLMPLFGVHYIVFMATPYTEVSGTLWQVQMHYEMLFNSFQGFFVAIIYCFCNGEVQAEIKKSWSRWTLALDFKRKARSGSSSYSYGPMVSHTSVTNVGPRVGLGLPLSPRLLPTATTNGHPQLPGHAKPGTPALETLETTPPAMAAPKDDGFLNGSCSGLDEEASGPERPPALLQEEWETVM
# UniProt P46063: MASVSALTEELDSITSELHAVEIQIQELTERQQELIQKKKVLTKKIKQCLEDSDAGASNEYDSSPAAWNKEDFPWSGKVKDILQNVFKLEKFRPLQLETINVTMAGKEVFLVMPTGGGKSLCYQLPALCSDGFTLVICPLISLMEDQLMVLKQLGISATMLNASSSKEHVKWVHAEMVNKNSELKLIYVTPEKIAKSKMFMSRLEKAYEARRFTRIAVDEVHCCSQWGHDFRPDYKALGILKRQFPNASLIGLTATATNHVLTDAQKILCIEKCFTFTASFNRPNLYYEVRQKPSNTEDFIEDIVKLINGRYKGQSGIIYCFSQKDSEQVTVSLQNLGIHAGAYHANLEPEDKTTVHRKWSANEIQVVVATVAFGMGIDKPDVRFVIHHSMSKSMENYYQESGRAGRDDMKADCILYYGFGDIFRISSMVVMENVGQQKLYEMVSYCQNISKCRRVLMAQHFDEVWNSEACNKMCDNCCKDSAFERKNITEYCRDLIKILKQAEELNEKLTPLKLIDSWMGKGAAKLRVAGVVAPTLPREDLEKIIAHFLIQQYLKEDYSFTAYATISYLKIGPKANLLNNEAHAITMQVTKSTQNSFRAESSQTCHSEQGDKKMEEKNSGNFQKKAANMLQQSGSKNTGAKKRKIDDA
# UniProt P43220, whole entry, looked up: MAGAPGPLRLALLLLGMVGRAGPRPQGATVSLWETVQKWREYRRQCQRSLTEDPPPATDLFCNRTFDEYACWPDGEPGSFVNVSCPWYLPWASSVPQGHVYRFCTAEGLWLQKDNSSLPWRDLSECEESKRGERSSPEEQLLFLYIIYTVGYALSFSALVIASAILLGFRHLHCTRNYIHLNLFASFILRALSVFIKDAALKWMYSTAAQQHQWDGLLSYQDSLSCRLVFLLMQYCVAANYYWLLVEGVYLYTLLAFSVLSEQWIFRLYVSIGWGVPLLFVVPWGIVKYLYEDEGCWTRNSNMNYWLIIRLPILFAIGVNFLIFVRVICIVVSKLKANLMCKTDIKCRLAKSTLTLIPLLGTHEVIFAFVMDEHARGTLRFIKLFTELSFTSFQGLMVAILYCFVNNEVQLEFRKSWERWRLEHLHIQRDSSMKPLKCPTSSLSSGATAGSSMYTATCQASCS
# Experiments:
# [1] = Cell Viability - LYMP1-003 - Assay at 40 hr (AID 964); note: potency is the fitted concentration of half-maximal effect; nearly all actives have a fitted effect of over 60% in size
# Outline: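 LYMP1-003 lymphoblastoid cells, 2500/well; 5 hr preincubation, 40 hr compound exposure, 37 C; CellTiter-Glo 30 min RT; luminescence; Hill-fit AC50. Positive control tetraoctylammonium bromide.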
# [2] = Cell Viability - LYMP2-005 (AID 967); note: potency is the fitted concentration of half-maximal effect
# Outline: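 LYMP2-005 human lymphoblastoid cells (2500/well) were treated with compounds for 24 h at 37 C. Intracellular ATP was then measured by CellTiter-Glo luminescence after 30 min at room temperature. AC50 values came from Hill-equation fits of qHTS concentration-response data.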
# [3] = Cell Viability - LYMP2-013 (AID 970); conditions: LYMP2-013 lymphoblastoid cells viability; note: potency is the fitted concentration of half-maximal effect; nearly all actives have a fitted effect of over 55% in size
# Outline: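 CellTiter-Glo luminescence (cellular ATP) read after 30 min at RT. Cells: human lymphoblastoid line, 2500/well, 24 hr compound exposure at 37 C. Tetraoctylammonium bromide positive control; AC50 via standard Hill fit of qHTS titrations.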
# [4] = Cell Viability - LYMP2-015 (AID 971); note: potency is the fitted concentration of half-maximal effect; nearly all actives have a fitted effect of over 55% in size
# Outline: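 qHTS cytotoxicity: 2500 cells/well, 5 hr 37 C, compound 24 hr 37 C, CellTiter-Glo 30 min RT, luminescence. Loss of ATP = toxicity; AC50 via standard Hill fit.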
# [5] = Cell Viability - LYMP2-017 (AID 972);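 note: potency is the fitted concentration of half-maximal effect; cells exposed to compound for 24 hours at 37 °C; nearly all actives have a fitted effect of over 55% in size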
# Outline: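 Luminescent ATP read-out (CellTiter-Glo, 30 min RT) reports viable cell number. Cells: human lymphoblastoid line, 2500 per well, 5 hr preincubation, 24 hr compound exposure at 37 C. AC50 is derived from qHTS concentration-response data using the standard Hill model.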
# [6] = Cell Viability - LYMP2-002 (AID 977);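 note: potency is the fitted concentration of half-maximal effect; compound exposure lasted 24 h at 37 °C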
# Outline: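 Human lymphoblastoid cells, 2500/well, complete medium; 5 h 37 C settle; compound 24 h 37 C; CellTiter-Glo, 30 min RT; luminescence. Decrease in ATP = cytotoxicity; AC50 via Hill equation.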
# [7] = Cell Viability - LYMP2-018 (AID 985); note: potency is the fitted concentration of half-maximal effect; nearly all actives have a fitted effect of over 50% in size
# Outline: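 2500 cells/well; 5 hr 37 C; cmpd 24 hr 37 C, complete medium; CellTiter-Glo 30 min RT; luminescence. Tetraoctylammonium bromide positive control. AC50 via Hill fit.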
# [8] = Cell Viability - LYMP2-020 (AID 986); note: potency is the fitted concentration of half-maximal effect; nearly all actives have a fitted effect of over 55% in size
# Outline: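 qHTS, 2500 cells/well; 5 hr then 24 hr compound exposure, 37 C; CellTiter-Glo luminescence after 30 min RT; ATP decrease taken as cytotoxicity; AC50 via Hill equation; tetraoctylammonium bromide positive control.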
# [9] = Cell Viability - LYMP2-022 (AID 987)
# Outline: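 Luminescent ATP read-out (CellTiter-Glo, 30 min, RT) after 24 hr, 37 C compound exposure of 2500 human lymphoblastoid cells/well in complete medium. Cytotoxicity taken as concentration-dependent ATP loss; AC50 from standard Hill equation.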
# [10] = Cell Viability - LYMP2-026 (AID 989); note: potency is the fitted concentration of half-maximal effect; nearly all actives have a fitted effect of over 50% in size
# Outline: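 qHTS cytotoxicity: 2500 cells/well, 5 hr 37 C, compound 24 hr 37 C, CellTiter-Glo 30 min RT, luminescence. Tetraoctylammonium bromide positive control. AC50 via standard Hill fit.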
# [11] = Cell Viability - LYMP1-002 - Assay at 40 hr (AID 994); note: potency is the fitted concentration of half-maximal effect; nearly all actives have a fitted effect of over 60% in size
# Outline: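 qHTS cytotoxicity; 2500 cells/well, 5 hr 37 C settle, compound 40 hr 37 C. CellTiter-Glo, 30 min RT, luminescence (ATP). Concentration-response, Hill fit → AC50. Pos. ctrl tetraoctylammonium bromide.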
# [12] = Primary redox qHTS assay for identification of artifact compounds. (AID 1845223); note: potency is the fitted concentration of half-maximal effect
# Outline: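 Redox-cycling detection via DTT (250 uM final) oxidation coupled to Amplex Red (25 uM)/HRP (250 mU/mL) in HBSS. 15 min preincubation plus 30 min after DTT, room temperature. Ex/Em 525/598 nm; 4-parameter Hill fit against DMSO and 10 uM DA3003.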
# [13] = qHTS for compounds that reverse cellular toxicity of Amyloid beta (A-beta) peptide in yeast: LOPAC Validation Assay (AID 720559); conditions: yeast expressing A-beta, rescue of growth toxicity; note: potency is the fitted concentration of half-maximal effect
# Outline: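 Rescue of A-beta toxicity was scored as yeast growth by 600 nm absorbance after 48 hr at 30 C with compound. Normalization used DMSO (negative) and equimolar ferric chloride plus clioquinol (positive).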
# [14] = test system: Zika virus NS2B-NS3 protease (unlinked complex); test: Confirmatory screen GU AMC qHTS for Zika virus inhibitors (AID 1347153);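 note: enzyme at 25 nM with substrate at 10 µM below its Km of 18.3 µM; potency is the fitted concentration of half-maximal effect; nearly all actives have a fitted effect of over 70% in size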
# Outline: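 Compounds were preincubated 15 min at room temperature with 25 nM noncovalent NS2B-NS3 protease at pH 8.0; AMC substrate added at 10 microM and 15-min fluorescence gain (340/450 nm) converted to percent inhibition, fitted 4-parameter.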
# [15] = test system: Zika virus NS2B-NS3 protease (linked); test: 384 well plate NINDS AMC confirmatory qHTS for Zika virus inhibitors (AID 1347163);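 note: linked protease at 5 30 or 60 nM final depending on run; fluorescence of AMC released from Ac-VKTGKR-AMC peptide cleaved by the protease; top concentration of the series differs between compounds; nearly all actives have a fitted effect of over 50% in size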
# Outline: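 Enzyme (5, 30 or 60 nM final) first met test compounds for ~15 min. The AMC-tagged peptide Ac-VKTGKR-AMC followed at 30 microM. Fluorescence was then recorded at 25 min and scaled against no-enzyme and no-inhibitor wells.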
# [16] = molecular target: Pyruvate kinase (Leishmania mexicana) (UniProt Q27686); test: qHTS Validation Assay for Activators of Leishmania Mexicana Pyruvate Kinase (AID 959)
# Outline: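 Read-out: luminescence from PKLight stop/detection reagent, data normalized to DMSO. Reaction: 0.2 nM E451W LmPYK, 0.5 mM PEP, 0.1 mM ADP, pH 7.2, 1 h room temperature.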
# [17] = qHTS for Inhibitors of Cell Surface uPA Generation: Validation Assay (AID 493164)
# Outline: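 Compounds are titrated over seven points (2.45 nM–38.3 uM final) onto pre-plated RAW 264.7 cells and incubated for 18 h. Retained intracellular ATP, measured with ATP-Lite, indicates blocked lethal factor entry.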
# [18] = molecular target: Parathyroid hormone/parathyroid hormone-related peptide receptor (Homo sapiens) (UniProt Q03431); test: qHTS for PTHR1 Agonists: Optimization Screen against the NCGC LOPAC library (AID 1347079);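 note: GloSensor cAMP luminescence in HEK-293 GP2 cells expressing human PTHR1 with IBMX; potency is the fitted concentration of half-maximal effect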
# Outline: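 Signal increase flags agonism. GP2 cells, derived from HEK-293, express human PTHR1 and a GloSensor cAMP construct.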
# [19] = molecular target: ATP-dependent DNA helicase Q1 (Homo sapiens) (UniProt P46063); test: qHTS Validation Assay for Inhibitors of RecQ-Like Dna Helicase 1 (RECQ1) (AID 2353); note: potency is the fitted concentration of half-maximal effect
# Outline: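 RECQ1T1 50 nM; forked duplex (20 bp + 30-nt ss tails) 200 nM, ATP 2 mM final; pH 8.0, 2 mM MgCl2, 2.5 ug/ml poly(dI-dC); 15 min compound preincubation; discontinuous kinetic read over 2 h at RT.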
# [20] = molecular target: Glucagon-like peptide 1 receptor (Homo sapiens) (UniProt P43220); test: qHTS of GLP-1 Receptor Agonists: LOPAC Validation (AID 624148); conditions: GLP-1R agonist cell assay; series mostly up to 46.1 µM;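 note: higher luminescence signal means agonism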
# Outline: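 HEK293 cells stably co-expressing GLP-1R and a cAMP-responsive luciferase reporter, plated 12 hours before compound, then incubated 4-6 hr at 37 deg C. Luminescence read 12 min after detection reagent.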
smiles,measurement,setting,value
C=C1C(CCl)(CCl)C2(Cl)C(Cl)C(Cl)C1(Cl)C2(Cl)Cl (stereo not given),Potency,[1],"inconclusive: 39.8 µM [cytotoxic, partial curve]"
same,Potency,[2],"inconclusive: 39.8 µM [cytotoxic, partial curve, poor fit]"
same,Potency,[3],active: 50.1 µM
same,Potency,[4],active: 39.8 µM
same,Potency,[5],active: 50.1 µM
same,Potency,[6],"inconclusive: 50.1 µM [cytotoxic, partial curve, poor fit]"
same,Potency,[7],active: 50.1 µM
same,Potency,[8],active: 50.1 µM
same,Potency,[9],active: 39.8 µM
same,Potency,[10],"inconclusive: 79.4 µM [cytotoxic, single point]"
same,Potency,[11],"inconclusive: 39.8 µM [cytotoxic, partial curve]"
CC(C/C=C/C(C)(C)O)C1CCC(C)(O)C(O)C1 (stereo not given),Potency,[12],"inconclusive: 37.7 µM [activator, partial curve, poor fit]"
CCCCCCCC/C=C\CCCCCCCC(=O)NCCc1ccc(O)c(O)c1,Potency,[13],"inconclusive: 20.6 µM [activator, single point]"
same,Potency,[14],"inconclusive: 24.1 µM [inhibitor, single point]"
COc1cc(/C=C(\C#N)C(=O)Nc2nnc(C(F)(F)F)s2)ccc1OCc1ccc(C(F)(F)F)cc1C(F)(F)F,Potency,[15],inactive
O=C(c1cc(O)c(O)c([N+](=O)[O-])c1)c1ccccc1F,Potency,[16],"inconclusive: 20 µM [activator, single point]"
Cc1cc2c(cc1Cl)N(C(=O)Nc1ccc(Oc3cccnc3C)nc1)CC2,Potency,[17],"inconclusive: 29.3 µM [activator, partial curve, poor fit]"
N#CC(=C(\N)Sc1ccccc1N)/C(C#N)=C(/N)Sc1ccccc1N,Potency,[18],"inconclusive: 26.7 µM [activator, single point]"
O=C(O)C1CN(CCCP(=O)(O)O)CCN1 (stereo not given),Potency,[19],"inconclusive: 3.16 µM [inhibitor, full curve]"
O=C(O)c1cc(=O)c2ccccc2[nH]1,Potency,[20],inactive

# Looked up one by one from above:
smiles,measurement,setting,value
C=C1C(CCl)(CCl)C2(Cl)C(Cl)C(Cl)C1(Cl)C2(Cl)Cl (stereo not given),Potency,[5],active: 50.1 µM
same,Potency,[11],"inconclusive: 39.8 µM [cytotoxic, partial curve]"
